According to publication PMC6045631:
No constants are given. Whether binding was seen depends on the method and setting. For some of these results: Binding seen in cells or lysates may run through a third protein. Some binding calls cover weakened binding; strength is not graded here. For some of these results: Where a sequence is shown, tags or fusion partners need not be part of it. Blank lines part the entries; values can stand above or below the molecule they belong to.

Protein sequences, listed by entry. Tags and fused reporters are not part of them. Lines headed by an entry give the natural chain unless they say otherwise; changes in a name come on top.
UniProt Q9DC04: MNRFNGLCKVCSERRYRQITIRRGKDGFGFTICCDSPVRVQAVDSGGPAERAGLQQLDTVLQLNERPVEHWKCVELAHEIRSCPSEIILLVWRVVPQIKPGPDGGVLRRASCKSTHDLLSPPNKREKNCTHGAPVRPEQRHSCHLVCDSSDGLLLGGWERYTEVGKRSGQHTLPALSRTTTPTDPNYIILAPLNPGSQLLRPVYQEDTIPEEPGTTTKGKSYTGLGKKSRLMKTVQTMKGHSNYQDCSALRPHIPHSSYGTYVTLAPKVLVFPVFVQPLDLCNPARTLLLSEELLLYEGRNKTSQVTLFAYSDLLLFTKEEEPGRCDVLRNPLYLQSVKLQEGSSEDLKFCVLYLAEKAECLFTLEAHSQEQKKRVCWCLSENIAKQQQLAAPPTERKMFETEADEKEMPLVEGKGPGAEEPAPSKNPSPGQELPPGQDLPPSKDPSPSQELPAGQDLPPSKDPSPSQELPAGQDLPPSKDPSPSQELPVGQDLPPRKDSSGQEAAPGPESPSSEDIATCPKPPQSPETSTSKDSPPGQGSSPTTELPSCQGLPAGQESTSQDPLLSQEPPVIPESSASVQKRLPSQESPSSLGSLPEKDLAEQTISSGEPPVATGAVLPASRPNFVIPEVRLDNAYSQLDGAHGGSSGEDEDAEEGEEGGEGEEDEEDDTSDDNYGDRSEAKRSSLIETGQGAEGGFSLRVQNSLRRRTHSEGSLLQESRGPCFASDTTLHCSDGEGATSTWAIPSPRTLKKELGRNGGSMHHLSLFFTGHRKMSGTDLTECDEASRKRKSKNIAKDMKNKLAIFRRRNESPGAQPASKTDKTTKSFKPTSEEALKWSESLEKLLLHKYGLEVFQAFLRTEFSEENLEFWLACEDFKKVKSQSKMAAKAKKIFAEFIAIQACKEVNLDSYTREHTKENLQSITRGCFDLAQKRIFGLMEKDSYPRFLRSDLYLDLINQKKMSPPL

Assays:
[1] = biological target: T1, RGS-binding domain (RBD) of KIF20A, HA-tagged (mouse) (UniProt P97329); test: co-IP; plasmids co-transfected into HEK293 cells; lysis buffer 10 mM Tris-HCl pH 7.5, 150 mM NaCl, 1% NP40, 1 mM EDTA, 1 mM DTT; Flag or Myc antibody 1 µg/ml, magnetic protein G beads; western blot
T1 sequence: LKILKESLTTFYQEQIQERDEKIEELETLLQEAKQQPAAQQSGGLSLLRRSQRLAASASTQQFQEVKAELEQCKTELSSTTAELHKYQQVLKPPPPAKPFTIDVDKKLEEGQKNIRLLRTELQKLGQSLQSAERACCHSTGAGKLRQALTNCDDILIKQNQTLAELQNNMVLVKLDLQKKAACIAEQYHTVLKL

[2] = biological target: endogenous RGS3 of embryonic mouse brain (mouse (endogenous in E15.5 brain)) (UniProt Q9DC04); test: co-IP; endogenous proteins; lysate of 14 pooled E15.5 mouse brains; 5 µg anti-RGS antibody or control IgG, magnetic protein G beads; western blot
[3] = biological target: RGS domain of RGS3 alone (two-hybrid bait) (UniProt Q9DC04); test: two-hybrid; mouse E9.5/10.5 embryonic two-hybrid cDNA library screened with full-length PDZ-RGS3 and with the RGS domain alone as baits; 20 million yeast cells with each bait
[4] = biological target: RGS domain of RGS3, GFP-tagged (UniProt Q9DC04); test: co-IP; plasmids co-transfected into HEK293 cells; lysis buffer 10 mM Tris-HCl pH 7.5, 150 mM NaCl, 1% NP40, 1 mM EDTA, 1 mM DTT; Flag or Myc antibody 1 µg/ml, magnetic protein G beads; western blot

Molecule: RGS domain of RGS3, GFP-tagged (from UniProt Q9DC04 841-966) (domain or fragment)
- binding [1]: binds

B2: KIF20A fragment, amino acids 625 to 818 (two-hybrid prey) (domain or fragment, UniProt P97329 625-818)
chain: T1 sequence
- binding [3]: binds

Second part, the molecule after the results:

- binding [2]: binds
B1: endogenous KIF20A of embryonic mouse brain (protein, UniProt P97329 1-887)
chain: MSHRILSPPAGLLSDEDVVDSPILESTAADLRSVVRKDLLSDCSVISASLEDKQALLEDTSEKVKVYLRIRPFLTSELDRQEDQGCVCIENTETLVLQAPKDSFALKSNERGVGQATHKFTFSQIFGPEVGQVAFFNLTMKEMVKDVLKGQNWLIYTYGVTNSGKTYTIQGTSKDAGILPQSLALIFNSLQGQLHPTPDLKPLLSNEVIWLDSKQIRQEEMKKLSLLIGGLQEEELSTSVKKRVHTESRIGASNSFDSGVAGLSSTSQFTSSSQLDETSQLWAQPDTVPVSVPADIRFSVWISFFEIYNELLYDLLEPPSHQHKRQTLRLCEDQNGNPYVKDLNWIHVRDVEEAWKLLKVGRKNQSFASTHMNQQSSRSHSIFSIRILHLQGEGDIVPKISELSLCDLAGSERCKHQKSGERLKEAGNINTSLHTLGRCIAALRQNQQNRSKQNLIPFRDSKLTRVFQGFFTGRGRSCMIVNVNPCASTYDETLHAAKFSALASQLVHAPPVHLGIPSLHSFIKKHSPQVGPGLEKEDKADSDLEDSPEDEADVSVYGKEELLQVVEAMKALLLKERQEKLQLEIQLREEICNEMVEQMQQREQWCSERLDNQKELMEELYEEKLKILKESLTTFYQEQIQERDEKIEELETLLQEAKQQPAAQQSGGLSLLRRSQRLAASASTQQFQEVKAELEQCKTELSSTTAELHKYQQVLKPPPPAKPFTIDVDKKLEEGQKNIRLLRTELQKLGQSLQSAERACCHSTGAGKLRQALTNCDDILIKQNQTLAELQNNMVLVKLDLQKKAACIAEQYHTVLKLQGQASAKKRLGANQENQQPNHQPPGKKPFLRNLLPRTPTCQSSTDSSPYARILRSRHSPLLKSPFGKKY

- binding [4]: binds
B3: RGS-binding domain (RBD) of KIF20A, HA-tagged (domain or fragment, UniProt P97329 625-818)
chain: T1 sequence
